Measurements taken from patent US8071763B2, “Methods for treatment of nocturia” (Daiichi Sankyo Company, Limited, priority 2002, dated 2011).

Tested on: patients with nocturia
Experiment: Continuation and termination of loxoprofen administration after the trial treatment
Assay type: in vivo, human
Experimental: After the initial study, loxoprofen was administered at the patients' discretion; 101 continued loxoprofen therapy for =320 (mean 61) days. After the evaluation, loxoprofen therapy was continued or not according to the patients' wishes (Table 5). Of 101 excellent and improved patients, 11 continued to take loxoprofen every night and 43 when necessary. The improvement of nocturia lasted for several months even after discontinuation of therapy in 11 (10%) who discontinued loxoprofen after 5 to 310 days' administration. In addition, in five patients in whom loxoprofen's effectiveness reduced after continuous administration, the effectiveness recovered with occasional administration following withdrawal for several weeks.

CC(C(=O)O)c1ccc(CC2CCCC2=O)cc1 (stereo not drawn) [loxoprofen, loxoprofen sodium]
Continued administration, average days (Excellent outcome): (129) days | Continued occasional administration, average days (Excellent outcome): (95) days | Terminated, average days (Excellent outcome): (56) days | Continued administration, average days (Improved outcome): (60) days | Continued occasional administration, average days (Improved outcome): (54) days | Terminated, average days (Improved outcome): (20) days
